The series relates to C. thermocellum crude extract, cellobiose-grown (GlyR3 activity assayed) (Clostridium thermocellum). The series can be described thus: EMSA. The note with it: 200 and 500 ng extract of cellobiose-grown cells; protein in an extract; label: 5'-biotin. A general note: Mobility shift assays separate free from complexed probe on a gel.

For at least one entry, the source does not settle the construct or the ends of the probe. Where cells or extracts were used, other partners may take part. Negatives hold for the conditions tested.

On to “AATCAATAAAATTATAACATATTACTTCAAAAGTGGGGACAAAAAAGAACAAAAAAATTGAAATTTTGATGAAAAATACAAGATATGAATTAAGTGGGCCGAATAAAAACTGGACAGAGAAGAAGAAAACGTGATATAATTAAATTAGAATGAACGCGCGTACATTATTGAATAATCCAGTGTTAAATGGTTTCAGTTTACGATTTCAAATGTTTATATCCAATTTACATTTAAAAACATACAAAACATCAAAAGTATTTAATACCAATATTTAAAACACAATATTTCAGGAGGAAAAAA (double strand) [celC promoter first (upstream) 100 bp half]”, for which the binding result was “no binding”.

The values above are taken from patent US20060105442, “Promoters and proteins from Clostridium thermocellum and uses thereof” (published 2006).
